# Taken from: PubChem BioAssay AID493246 (Drosophila RNAi Screening Center, 2011)
# Screen: 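Identify essential fly genes by loss of cell viability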 (primary screen)
# Cells: Drosophila Kc and S2R+ cells
# Reagent: long dsRNA against Drosophila genes
# Measurement: 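Raw, unnormalised count of remaining cells in each well; per-plate z-scores of cell number underlie the calls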
# Scale: Kc cell number and S2R+ cell number: higher = more cells remaining
# Rule for the call: 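Counted as a hit if cell number falls by a z-score of at least 3 within its plate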
# The screen tested about 21,000 reagents; shown is an unselected part of those with a known target gene and a result. Over the whole deposit, 429 (2%) are marked active. 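Values are raw and not normalised between plates; calls rest on per-plate z-scores that were not deposited.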 A number with no mark means an inactive call. A plus sign joins genes that one reagent is predicted to hit. The record does not give: the amount of reagent, the time to read-out.
predicted target,dsRNA,"Kc cell number, rep 1","Kc cell number, rep 2","S2R+ cell number, rep 1","S2R+ cell number, rep 2"
Slip1,DRSC17146,4.63e5,,8.06e5,
TBC1d7 + mRpS24,DRSC14611,1.32e6,1.36e6,9.19e5,1.01e6
sut2,DRSC07701,1.35e6,1.48e6,1.06e6,1.16e6
CG13933,DRSC08402,1.34e6,1.36e6,1.13e6,1.25e6
skd,DRSC11898,1.42e6,1.45e6,1.37e6,1.42e6
CG5177,DRSC02824,1.25e6,1.42e6,6.64e5,4.73e5
ash2,DRSC16902,1.54e6,1.56e6,1.14e6,1.20e6
l(2)05287,DRSC02151,1.46e6,1.50e6,9.29e5,9.91e5
l(2)05287,DRSC02152,1.50e6,1.61e6,1.20e6,4.18e5
Sik3,DRSC06505,1.65e6,1.64e6,1.18e6,1.30e6
Sik3,DRSC06771,1.40e6,1.40e6,1.29e6,1.31e6
EMC4,DRSC11638,1.71e6,1.77e6,1.37e6,1.48e6
Wnt5,DRSC20300,1.54e6,1.58e6,1.16e6,1.24e6
CG11373,DRSC12170,1.38e6,1.38e6,1.32e6,1.42e6
kl-2,DRSC21136,1.40e6,1.48e6,1.07e6,1.14e6
CG13928,DRSC08397,1.43e6,1.34e6,9.43e5,1.14e6
CG1622,DRSC19745,6.56e5,,8.85e5,
GPHR,DRSC07075,1.58e6,1.61e6,1.35e6,1.46e6
CG32191,DRSC10522,1.40e6,1.42e6,1.19e6,1.25e6
mmy,DRSC02002,1.25e6,1.30e6,7.20e5,8.69e5
Zip48C,DRSC06314,1.41e6,1.50e6,1.01e6,1.15e6
alphaTry,DRSC07577,1.58e6,1.64e6,1.38e6,1.43e6
CG4860,DRSC15664,1.34e6,1.41e6,1.08e6,1.17e6
bard,DRSC14796,1.35e6,1.34e6,1.06e6,1.14e6
